From publication PMC12120766, “Paclitaxel/Luteolin Coloaded Dual‐Functional Liposomes for Esophageal Cancer Therapy”
For at least one entry, the source does not settle the construct or the ends of the probe. For some assays here: Where cells or extracts were used, other partners may take part. Tags and fusion partners may be left off the protein sequences shown.

Tests used:
CTNNA1 (catenin alpha 1) = molecular target: T1, CTNNA1 (catenin alpha 1) (UniProt P35221); assay: MST; details: CTNNA1 antibody competitor; MST: 50 nM labeled CTNNA1 in 10 mM PBS pH 7.4, EA2 0.00153-50 uM in 10 mM PBST (0.05% Tween-20) pH 7.4; temperature not stated; protein details: RED-NHS dye label; single-stranded DNA
T1 sequence (looked up, limits assumed): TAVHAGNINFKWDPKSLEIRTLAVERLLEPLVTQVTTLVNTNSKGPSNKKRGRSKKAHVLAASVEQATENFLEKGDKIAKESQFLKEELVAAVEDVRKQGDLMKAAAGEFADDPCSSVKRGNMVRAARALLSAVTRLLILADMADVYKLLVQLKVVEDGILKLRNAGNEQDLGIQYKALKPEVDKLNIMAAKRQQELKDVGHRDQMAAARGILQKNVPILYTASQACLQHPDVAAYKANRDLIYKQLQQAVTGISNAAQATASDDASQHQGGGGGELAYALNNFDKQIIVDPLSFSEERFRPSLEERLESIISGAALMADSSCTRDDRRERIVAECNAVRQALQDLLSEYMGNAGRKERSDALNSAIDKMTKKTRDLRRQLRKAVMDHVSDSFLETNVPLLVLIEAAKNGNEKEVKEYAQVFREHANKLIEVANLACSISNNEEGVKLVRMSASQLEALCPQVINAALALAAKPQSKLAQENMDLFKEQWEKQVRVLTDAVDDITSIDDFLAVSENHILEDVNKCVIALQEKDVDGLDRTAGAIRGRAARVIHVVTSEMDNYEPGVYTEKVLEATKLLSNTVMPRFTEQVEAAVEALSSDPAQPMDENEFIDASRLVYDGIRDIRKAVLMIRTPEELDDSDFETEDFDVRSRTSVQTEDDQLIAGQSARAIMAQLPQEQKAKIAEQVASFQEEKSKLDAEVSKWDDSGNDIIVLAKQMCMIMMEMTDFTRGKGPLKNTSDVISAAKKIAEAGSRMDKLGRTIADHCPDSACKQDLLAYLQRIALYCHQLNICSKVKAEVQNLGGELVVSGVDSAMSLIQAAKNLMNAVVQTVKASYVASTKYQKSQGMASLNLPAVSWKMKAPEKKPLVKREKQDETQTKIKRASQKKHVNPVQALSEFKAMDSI

[1] = molecular target: T2, CTNNA1 (catenin alpha 1), native from KYSE-150 membrane (human (KYSE-150 cells)) (UniProt P35221); assay: pull-down, SDS-PAGE and mass spectrometry; details: protein in an extract; label: biotin; single-stranded DNA
T2 sequence (looked up, limits assumed): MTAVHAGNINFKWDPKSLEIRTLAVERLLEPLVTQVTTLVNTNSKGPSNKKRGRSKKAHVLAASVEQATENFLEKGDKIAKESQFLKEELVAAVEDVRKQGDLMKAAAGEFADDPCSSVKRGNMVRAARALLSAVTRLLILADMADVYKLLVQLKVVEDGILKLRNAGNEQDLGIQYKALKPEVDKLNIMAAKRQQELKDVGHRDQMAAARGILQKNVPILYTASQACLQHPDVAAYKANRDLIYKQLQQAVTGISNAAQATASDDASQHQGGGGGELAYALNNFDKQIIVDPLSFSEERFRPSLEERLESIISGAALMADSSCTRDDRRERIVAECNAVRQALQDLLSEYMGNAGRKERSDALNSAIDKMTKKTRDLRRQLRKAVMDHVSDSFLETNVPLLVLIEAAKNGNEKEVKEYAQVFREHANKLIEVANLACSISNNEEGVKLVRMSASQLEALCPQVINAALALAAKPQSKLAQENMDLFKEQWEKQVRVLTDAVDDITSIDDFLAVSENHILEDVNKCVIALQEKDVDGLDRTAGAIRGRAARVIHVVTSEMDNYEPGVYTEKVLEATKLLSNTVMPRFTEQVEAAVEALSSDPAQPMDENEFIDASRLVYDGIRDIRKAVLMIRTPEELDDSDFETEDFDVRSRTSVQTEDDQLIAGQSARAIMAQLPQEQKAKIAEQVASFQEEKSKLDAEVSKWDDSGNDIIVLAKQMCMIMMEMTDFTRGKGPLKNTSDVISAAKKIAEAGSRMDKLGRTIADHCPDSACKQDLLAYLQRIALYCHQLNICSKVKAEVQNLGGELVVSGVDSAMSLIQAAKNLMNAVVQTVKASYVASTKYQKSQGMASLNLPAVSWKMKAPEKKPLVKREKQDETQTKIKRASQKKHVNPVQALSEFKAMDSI

Sequence | Kd (CTNNA1 (catenin alpha 1)) | binding result [1]
AGCCTAAGCCTGTCCAGGAATCGTGCAGCCATAGCCTAAGCCTGTCCAGGAATCGATGGCTTAGTGGCACGATTAGGTC [EA2] | 300 µM | 
AGCCTAAGCCTGTCCAGGAATCGTGCAGCCATAGCCTAAGCCTGTCCAGGAATCGATGGCTTAGTGGCACGATTAGGTC [EA2, biotinylated] |  | binds
